Data from patent US20210403601A1 (FAPON BIOTECH, published 2021).
Positions count from the first letter of the chain named. No constants are given. Whether binding was seen depends on the method and setting. Some binding calls cover weakened binding; strength is not graded here. One block for each binder: values may come before it.

Protein sequences, listed by entry. Tags and fused reporters are not part of them.
UniProt P19821: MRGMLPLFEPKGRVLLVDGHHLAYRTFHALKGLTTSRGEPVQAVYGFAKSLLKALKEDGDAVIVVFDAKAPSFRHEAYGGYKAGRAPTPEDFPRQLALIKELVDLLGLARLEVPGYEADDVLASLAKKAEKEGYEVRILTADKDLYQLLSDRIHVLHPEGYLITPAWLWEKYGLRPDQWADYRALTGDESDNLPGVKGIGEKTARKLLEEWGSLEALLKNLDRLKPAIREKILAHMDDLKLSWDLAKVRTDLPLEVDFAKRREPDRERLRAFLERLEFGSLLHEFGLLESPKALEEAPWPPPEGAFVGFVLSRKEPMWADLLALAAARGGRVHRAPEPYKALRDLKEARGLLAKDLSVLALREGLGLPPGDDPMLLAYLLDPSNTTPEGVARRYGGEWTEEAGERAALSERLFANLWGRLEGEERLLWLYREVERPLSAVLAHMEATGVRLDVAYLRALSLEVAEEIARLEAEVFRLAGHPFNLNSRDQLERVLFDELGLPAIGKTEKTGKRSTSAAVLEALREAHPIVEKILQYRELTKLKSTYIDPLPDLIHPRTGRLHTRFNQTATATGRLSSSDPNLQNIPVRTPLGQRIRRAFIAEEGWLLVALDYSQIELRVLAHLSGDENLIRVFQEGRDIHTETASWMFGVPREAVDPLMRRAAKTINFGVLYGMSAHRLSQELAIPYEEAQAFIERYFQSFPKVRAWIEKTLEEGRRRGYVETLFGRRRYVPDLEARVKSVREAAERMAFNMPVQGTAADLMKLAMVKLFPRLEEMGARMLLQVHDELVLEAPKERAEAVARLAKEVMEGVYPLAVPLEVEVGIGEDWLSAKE

How the values were obtained:
Taq DNA polymerase [1] = molecular target: T1, Taq DNA polymerase (Thermus aquaticus, UniProt P19821 1-832); assay: ELISA on coated Taq, CHO supernatant
T1 construct: also called Taq enzyme; Taq DNA enzyme

Taq DNA polymerase [2] = molecular target: T1, Taq DNA polymerase; assay: ELISA and AMC sensor (Tables 2 and 3)

binding (Taq DNA polymerase [1]): binds
B1: Anti-Taq 2C7 recombinant antibody (WT) (antibody, mouse IgG1, kappa, V domains shown)
VH: QVQLQQPGAELVKPGASVRLSCQTSVDTFSTYYLYWVKQRPGEGLEWIGGVNPTSNPVFDEKFKSKATLTVDTSSSTAYMQLSSLTSVDSAVYYCTRSILRRGYYPDYWGQGTALTVSS
VL: DIQMTQTTSSLSASLGDRVTISCRGSQDIQNYVNWYQQKPDGTIKLLIYFTSRLQSGIPSRFSGSGSGTDYSLTIANLEQEDIATYFCQQDDTIPVTWGAGTKVELKR
notes: Mouse antibody expressed in CHO cells; also called WT antibody; antibody of sample 1

binding (Taq DNA polymerase [2]): binds
B2: Mutation 1 (antibody, V domains shown)
VH: B1 VH with L34I, D60N, P106F
VL: B1 VL with G25A, F50Y, W98F
notes: also called mutation 1 antibody
